This passage reports binding results from publication PMC8484550.

Amino acid sequences for entries named in this document (tags omitted).
UniProt O08573: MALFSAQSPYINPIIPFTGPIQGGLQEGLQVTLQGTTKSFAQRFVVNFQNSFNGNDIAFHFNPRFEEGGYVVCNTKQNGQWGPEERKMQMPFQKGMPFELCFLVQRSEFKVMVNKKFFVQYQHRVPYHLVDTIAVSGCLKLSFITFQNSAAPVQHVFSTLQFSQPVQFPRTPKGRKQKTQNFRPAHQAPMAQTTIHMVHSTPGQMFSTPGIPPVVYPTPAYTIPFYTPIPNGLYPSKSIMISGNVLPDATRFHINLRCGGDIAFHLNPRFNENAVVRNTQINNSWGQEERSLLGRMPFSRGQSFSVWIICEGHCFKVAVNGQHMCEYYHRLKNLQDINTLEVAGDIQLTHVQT

This assay deals with T1, CD146-Flag (UniProt Q8R2Y2).
T1 sequence: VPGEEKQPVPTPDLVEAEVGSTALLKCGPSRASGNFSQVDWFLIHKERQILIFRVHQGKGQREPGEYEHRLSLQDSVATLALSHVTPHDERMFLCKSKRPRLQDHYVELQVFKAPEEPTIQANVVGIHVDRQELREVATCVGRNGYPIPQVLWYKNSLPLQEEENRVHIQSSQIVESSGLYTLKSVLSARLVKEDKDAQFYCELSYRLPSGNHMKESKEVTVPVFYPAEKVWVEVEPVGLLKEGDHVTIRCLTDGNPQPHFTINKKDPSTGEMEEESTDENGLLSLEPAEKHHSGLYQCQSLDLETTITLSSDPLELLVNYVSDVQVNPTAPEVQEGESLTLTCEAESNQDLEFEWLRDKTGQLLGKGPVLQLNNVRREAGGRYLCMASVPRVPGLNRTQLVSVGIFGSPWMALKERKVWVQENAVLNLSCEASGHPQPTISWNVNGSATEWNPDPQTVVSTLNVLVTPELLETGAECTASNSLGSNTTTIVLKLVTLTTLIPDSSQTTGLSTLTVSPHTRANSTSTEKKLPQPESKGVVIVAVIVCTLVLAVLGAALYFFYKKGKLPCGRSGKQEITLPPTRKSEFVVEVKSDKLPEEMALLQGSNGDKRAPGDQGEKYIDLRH
Briefly: co-IP; immunoprecipitation from bEnd.3 and T cells; Galectin-9 detected by Western blotting. (In western blotting, separated proteins are transferred to a membrane and probed.)

Results are given in words; binding and its absence hold for the method and conditions named. In cells and extracts the contact can be indirect. Some binding calls cover weakened binding; strength is not graded here. Tags and fused reporters may be left off the sequences shown.

Galectin-9 (from UniProt O08573 1-353): the binding result is “binds”.
